Test results from patent US5994402A, “Anti-inflammatory and anti-pyretic method” (priority 1997, dated 1999).
Entries after “also recorded” stand apart in the source; their conditions may differ. At least one structure is not confirmed: it was looked up by name or label, or the drawing left a doubt.

How the values were obtained:
[1] = system: lung permeability after intratracheal LPS; assay: LPS-induced lung injury: lung permeability index (transcapillary 125I-albumin flux); assay type: in vivo, male Sprague Dawley rats
Experimental: Male Sprague Dawley rats weighing 250-275 g were obtained from Charles River Laboratories (Constante, Quebec). All animal studies were performed in accordance with guidelines set forth by the Toronto Hospital Animal Care Committee and the Canadian Council on Animal Care. Animals were housed in standard wire bottom cages, fed standard rat chow and water ad libitum and were allowed to acclimatize before use. Prior to experimentation, animals were fasted overnight and anesthetized with intraperitoneal sodium pentobarbital (50 mg/kg). A tracheostomy was performed and 0.5 ml of saline containing […] of lipopolysaccharide was instilled followed by 20 mechanically ventilated breaths using a rodent ventilator. Sham animals received 0.5 ml of saline alone. Animals were maintained at 37° C. with the use of warming blankets until recovery from anaesthesia.
For examples 11 to 17, systemic GSH depletion in animals was accomplished by administering various doses of DEM or phorone by intraperitoneal injection following an overnight fast
At the end of the experimental protocol, rats were ventilated, heparin (100 U) was injected into the right ventricle, and 1 ml of blood was withdrawn by cardiac puncture. Following exsanguination, lungs were perfused blood-free by cannulating the pulmonary artery and infusing 10 ml of a low-potassium dextran solution containing 0.5 mg/L of PGE1. The left ventricle, left atria and mitral valve were opened widely to allow free drainage of effluent. The right lung was immediately frozen in liquid nitrogen for assay of non-protein thiols and ICAM-1 and TNF-a mRNA expression, myeloperoxidase activity, as described below. The left lung was used to calculate a permeability index (PI) as follows: [formula] Thioglycollate-induced Peritonitis

[2] = system: lung GSH; assay: Lung glutathione / non-protein thiol assay (DTNB); assay type: in vivo, male Sprague Dawley rats
Experimental: Male Sprague Dawley rats weighing 250-275 g were obtained from Charles River Laboratories (Constante, Quebec). All animal studies were performed in accordance with guidelines set forth by the Toronto Hospital Animal Care Committee and the Canadian Council on Animal Care. Animals were housed in standard wire bottom cages, fed standard rat chow and water ad libitum and were allowed to acclimatize before use. Prior to experimentation, animals were fasted overnight and anesthetized with intraperitoneal sodium pentobarbital (50 mg/kg). […]
Quantitation of total lung and endothelial non-protein sulfhydryls (NPSH) was assessed using a DTNB based assay as described by Jocelyn. […] The resultant acid thiol extract was assayed for NPSH by quantitating the reduction of DTNB through its conversion to 5-thio-2-nitrobenzoic acid (TNB) at 412 nm using a spectrophotometer. Sample values were then calculated from a standard curve generated using known amounts of GSH and are expressed as GSH equivalents per gram of lung tissue.
Quantitation of lung non-protein sulfhydryls (NPSH) was assessed using a DTNB based assay as described by Jocelyn ^17. […] The resultant acid thiol extract was assayed for NPSH by quantitating the is reduction of DTNB through its conversion to 5-thio-2-nitrobenzoic acid (TNB) at 412 nm using a spectrophotometer. […]

[3] = system: IL-1a-induced lung injury; assay: IL-1a-induced lung injury (transcapillary albumin flux); assay type: in vivo, rats; conditions: DEM 6 mmole/kg 1 h prior to intratracheal IL-1a (50 ng)
[4] = system: peripheral blood neutrophil respiratory burst; assay: PMN chemiluminescence (phorbol ester-stimulated whole blood); parameters: species or system rats; conditions: DEM 6 mmole/kg 1 h prior to LPS; PMA 12.5 μM
[5] = system: BALF neutrophils; assay: Bronchoalveolar lavage neutrophil count; assay type: in vivo, rats
[6] = system: circulating PMN; assay: Peripheral blood neutrophil count; assay type: in vivo, rats; conditions: DEM 6 mmole/kg 1 h prior to LPS; 4 h
[7] = system: CD11b/CD18; assay: PMN CD11b expression by flow cytometry; parameters: species or system rats; conditions: DEM pretreatment
[8] = system: ICAM-1; assay: Lung ICAM-1 immunohistochemistry; assay type: in vivo, rats; conditions: DEM 6 mmole/kg 1 h prior to LPS
[9] = system: ICAM-1 mRNA; assay: Lung ICAM-1 mRNA expression (Northern analysis); assay type: in vivo, rats
[10] = system: TNF-a; assay: BALF TNF-a by ELISA; assay type: in vivo, rats; conditions: LPS, DEM-treated vs control
[11] = system: ICAM-1 on rat heart endothelial cells (RHEC); assay: In vitro ICAM-1 expression on RHEC (ELISA); assay type: cell-based
[12] = system: antigen-induced arthritis; assay: Antigen-induced arthritis (AIA); assay type: in vivo, Lewis rats
Experimental: We examined the effect of intracellular thiol depletion in antigen-induced arthritis (AIA) with the administration of diethylmaleate (DEM) which is known to deplete glutathione. AIA was induced by sensitizing Lewis rats with 2 subcutaneous injections of methylated bovine serum albumin (1 mg/ml), then administering an intra-articular injection of mBSA.

[13] = system: ICAM-1 on human umbilical vein endothelial cells (HUVEC); assay: ICAM-1 expression in HUVEC; assay type: cell-based
[14] = system: skin vascular permeability; assay: LPS dermal inflammation: skin permeability index; assay type: in vivo, Swiss Webster mice; conditions: LPS + DEM
Experimental: Swiss Webster mice were injected intradermally with saline or LPS (30 μg) with or without ip DEM or vehicle. Injection sites were harvested after 24 hours and evaluated for change in vascular permeability, using I^125 -labelled albumin and for levels of ICAM-1 mRNA (Table III).

[15] = system: ICAM-1 mRNA; assay: Skin ICAM-1 mRNA (Northern blot); assay type: in vivo, mice; conditions: DEM 6 mmol/kg
[16] = system: NF-κB; assay: NF-κB binding by electrophoretic mobility shift assay (EMSA); assay type: cell-based, human umbilical vein endothelial cells; conditions: HUVEC in vitro
[17] = system: lung PMN sequestration; assay: Histologic evaluation of lung tissue; assay type: in vivo, rats; conditions: DEM 6 mmole/kg prior to LPS
[18] = system: lung MPO activity (PMN content); assay: Lung myeloperoxidase (MPO) activity; assay type: in vivo, rats
[19] = system: TNF-a mRNA; assay: Lung TNF-a mRNA (Northern analysis); assay type: in vivo, rats; conditions: LPS, DEM pretreated
[20] = system: human PMN / HUVEC monolayers; assay: PMN transendothelial migration across HUVEC monolayers; assay type: cell-based; conditions: DEM pretreatment 30 min, LPS 6 h, fMLP
[21] = system: PMN influx into the peritoneal cavity; assay: Thioglycollate-induced peritonitis; assay type: in vivo, male Sprague Dawley rats
[22] = system: endotoxin/galactosamine induced hepatic necrosis; conditions: literature (ref 14); cited from earlier work
[23] = system: LDH activity; conditions: previous reports (ref 24); cited from earlier work

## CCOC(=O)/C=C\C(=O)OCC [DEM, diethylmaleate]
[1]; DEM 6 mmole/kg ip 1 h prior to intratracheal LPS
  LPS-induced increase in lung permeability: completely prevented the increase in permeability; also recorded: completely reversed the LPS-induced increase In lung permeability
[1]; DEM 6 mmole/kg ip, no LPS
  lung permeability in control animals: no effect on lung permeability in control animals
[1]; DEM doses less than 6 mmole/kg
  protective effect on LPS-induced lung permeability: not evident
[2]; DEM 6 mmole/kg ip
  lung thiol levels: significant reduction in lung thiol levels
[2]; DEM lower doses (< 6 mmole/kg)
  lung GSH levels: comparable to the control group
[3]
  IL-1a-induced lung injury: similarly attenuated
[4]
  PMA-stimulated whole blood chemiluminescence: only moderately attenuated
[5]; DEM 6 mmole/kg 1 h prior to LPS, 4 h
  BALF neutrophil accumulation: completely prevented the increase in BALF neutrophil accumulation
[5]; DEM administered at the time of LPS
  neutrophil (PMN) influx into the lung: totally prevented
[6]
  circulating PMN counts: higher in DEM pretreated animals
[7]; LPS
  PMN CD11b/CD18 expression: augmented CD11b/CD18 expression equally in DEM and control animals
[7]; sham animals
  PMN CD11b expression: unaffected by DEM pretreatment
[8]
  upregulation of lung ICAM-1 expression: completely prevented expression of the EC adhesion molecule ICAM-1 in response to LPS; also recorded: not evident; also recorded: totally abrogated; also recorded: completely abrogated
[9]; DEM 6 mmole/kg prior to LPS
  LPS-induced lung ICAM-1 mRNA upregulation: totally prevented the increase in levels of ICAM-1 mRNA; also recorded: totally abrogated; also recorded: almost completely mitigated ICAM-1 upregulation
[9]; sham/control animals, DEM pretreatment
  constitutive lung ICAM-1 mRNA expression: slightly attenuated; also recorded: moderately attenuated
[10]
  BALF TNF-a levels: no differences between control and DEM-treated animals
[11]; DEM 0-250 μM, 30 min prior to LPS or TNF-a, 6 h
  ICAM-1 upregulation on RHEC: prevented the upregulation of ICAM-1 in a dose-dependent fashion
[11]; DEM added 30 minutes following cell activation
  ICAM-1 effect with DEM added after activation: this effect persisted
[11]; RHEC ELISA control
  ICAM-1 binding by the primary antibody: did not impair ICAM-1 binding
[11]; delayed addition 30-60 min
  ICAM-1 expression with delayed addition of DEM: normal levels of ICAM-1 expression were detected
[11]; delayed addition in excess of 60 minutes
  ICAM-1 expression with delayed addition of DEM: normal levels of ICAM-1 expression were detected
[11]; in some experiments
  ICAM-1 expression on RHEC vs constitutive: reduced ICAM-1 expression to below constitutive levels
[11]; pretreatment or concomitant DEM, LPS or TNF-a
  ICAM-1 upregulation on RHEC: prevented upregulation of ICAM-1
[12]; 48 hours after single DEM
  severity of arthritis at 48 hours: treated and untreated animals showing comparable severity of arthritis
[12]; DEM 6 mmole/kg ip 1 h prior to antigen
  attenuation of inflammation: almost complete attenuation of the inflammation
[13]; HUVEC, TNF-a 100 ng/ml, planned study
  anticipated levels of ICAM-1 protein and mRNA expression: dramatic reduction in levels of protein and mRNA expression
[13]; in vitro
  ICAM-1 protein and gene expression in HUVEC: prevented upregulation of ICAM-1 protein and gene expression
[14]
  decrease of skin permeability index: decreased skin permeability index (PI) in a dose dependent fashion
[15]
  LPS-induced upregulation of skin ICAM-1 mRNA: prevented the LPS-induced upregulation of ICAM-1 mRNA
[16]
  LPS-dependent increase in NF-κB binding: abrogated the LPS-dependent increase in NF-κB binding
[17]
  lung PMN by histology: PMN are absent from both within the alveolar spaces and the interstitium
[18]; DEM 6 mmole/kg prior to LPS
  lung PMN increase following LPS (MPO activity): significantly attenuates the increase in lung PMN
[18]; DEM, no LPS
  lung MPO activity in control animals: no effect on MPO activity in control animals
[19]
  lung TNF-a mRNA expression: unaffected
[20]
  PMN transendothelial migration: rate of transmigration is equivalent to that seen under basal conditions
[21]; DEM
  basal cell number within the peritoneal cavity: no effect on the basal cell number
[21]; DEM 6 mmole/kg 1 h prior, 4 h
  thioglycollate-induced increase in peritoneal exudate neutrophils: almost completely attenuated
[22]
  protection from hepatic necrosis: protective
[23]
  effect on LDH activity: not affected by DEM
